Source: paper PMC12843386, “Ly6/uPAR Protein from Asterias rubens Starfish Stimulates Migration and Invasion of Human Epithelial and Immune Cells” (Marine Drugs, 2025)

Assays:
[1] = molecular target: T1, peptide mimicking loop I of Lystar5 (Asterias rubens); assay: pull-down; affinity extraction: Lystar5 or loop I or II (1 mg/mL) coupled to NHS Flexibind magnetic beads, incubated 1 h in TBS with the pre-cleared membrane fraction of HaCaT keratinocytes; washes with TBS, TBS + 1 M NaCl + 0.5% Triton X-100, TBS + 0.5% Triton X-100; Western blotting; only the target …
T1 sequence (peptide, C-terminal amide): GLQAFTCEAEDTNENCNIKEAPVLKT

[2] = molecular target: T2, peptide mimicking loop II of Lystar5 (Asterias rubens); assay: as above
T2 sequence (peptide, C-terminal amide): GCQVIYSTERGKLRIDCG

[3] = molecular target: T2, peptide mimicking loop II of Lystar5 (Asterias rubens); assay: pull-down; affinity extraction: Lystar5 or loop I or II (1 mg/mL) coupled to NHS Flexibind magnetic beads, incubated 1 h in TBS with the pre-cleared membrane fraction of PBMCs; washes with TBS, TBS + 1 M NaCl + 0.5% Triton X-100, TBS + 0.5% Triton X-100; Western blotting; only the target purified

binding [1]	binding [2]	binding [3]	Substance
binds			α5 integrin subunit (receptor)
binds	binds	binds	αV integrin subunit (receptor)

No constants are given. Whether binding was seen depends on the method and setting. Binding seen in cells or lysates may run through a third protein. Binding can be weak; no strength is given.
